# Taken from: PubChem BioAssay AID1224830 (NIAID, 2016)
# Aim: 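Genes whose knock-down alters the TNF-alpha reporter response to LPS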 (primary screen)
# System: human THP-1 monocytic leukaemia cells, TNF dual-luciferase reporter clone, PMA-differentiated to macrophage-like cells
# Reagent: siRNA pool against human genes, 50 nM
# Timing: LPS for 4 h, given about 3 days after siRNA transfection
# Challenge: bacterial LPS (TLR4 ligand), 10 ng/ml
# Read-out: 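Ratio of firefly to renilla light, scaled to the plate median and expressed as a robust z-score per replicate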
# Direction: TNF reporter robust z-score: higher = stronger TNF reporter response to LPS
# Call rule: 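Each well counts as active if its z-score is over 2.8 or under -1.5; controls are left without a call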
# Shown is an unselected part of about 18,000 reagents tested. About 2,900 of them (16%) count as active. 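Calls are made per well; low scores hint the gene aids the LPS response, high scores that it dampens it.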 A number with no mark means an inactive call. Repeated entries: four replicate wells of each siRNA pool. No sequences are given here.
The first 8 records, ahead of the listing:
target,TNF reporter robust z-score
EIF2D,-0.43
EIF2D,-0.12
EIF2D,-0.37
ORM1,0.76
ORM1,1.13
ORM1,0.17
ORM1,1.16
KIF20B,2.1

The list itself, from the start:
target,TNF reporter robust z-score
EIF2D,-0.43
EIF2D,-0.12
EIF2D,-0.37
ORM1,0.76
ORM1,1.13
ORM1,0.17
ORM1,1.16
KIF20B,2.1
KIF20B,2.26
KIF20B,0.72
KIF20B,0.24
BPIFB3,-1.05
BPIFB3,-0.83
BPIFB3,-0.93
BPIFB3,-0.77
FXYD3,-0.96
FXYD3,-0.64
FXYD3,-0.13
FXYD3,-0.18
MEI1,0.38
MEI1,0.07
MEI1,0.75
MEI1,-0.69
CLEC17A,0.77
CLEC17A,1.01
CLEC17A,1.48
CLEC17A,0.5
NATD1,3.08 (active)
NATD1,3.81 (active)
NATD1,1.75
NATD1,0.45
ESX1,-0.92
ESX1,-0.75
ESX1,-1.28
ESX1,-0.37
TAF1D,-0.61
TAF1D,-0.42
TAF1D,0.06
TAF1D,-0.11
ZNF540,3.73 (active)
ZNF540,3.27 (active)
ZNF540,2.17
ZNF540,0.61
ZNF764,-1.39
ZNF764,-0.88
ZNF764,-0.01
ZNF764,-0.39
NOL6,-0.35
NOL6,-0.26
NOL6,-0.61
NOL6,-0.56
LAMB3,-0.21
LAMB3,-0.01
LAMB3,-0.52
LAMB3,0.2
NPEPL1,0
NPEPL1,-0.31
NPEPL1,0.12
NPEPL1,-0.98
TSPY1,1.78
TSPY1,2.54
TSPY1,1.34
TSPY1,1.91
SNTN,-0.45
SNTN,-1.07
SNTN,-0.77
SNTN,0.68
SLC51B,0.81
SLC51B,0.47
SLC51B,1.43
SLC51B,1.12
SH3PXD2A,1.78
SH3PXD2A,3.38 (active)
SH3PXD2A,3.46 (active)
SH3PXD2A,1.81
MTPN,0.57
MTPN,1.29
MTPN,0.83
MTPN,0.61
POPDC3,-0.8
POPDC3,0.26
POPDC3,0.14
POPDC3,0.53
MFSD2A,2.03
MFSD2A,1.41
MFSD2A,0.1
MFSD2A,0.81
LBH,1.59
LBH,-0.05
LBH,0.42
LBH,0.72
EOLA1,-0.62
EOLA1,0.02
EOLA1,-0.2
EOLA1,-0.1
HERC3,0.18
HERC3,1.43
HERC3,-0.29
HERC3,4.12 (active)
ASB12,-0.82
ASB12,-1.9 (active)
ASB12,-1.52 (active)
ASB12,-0.66
SEMA4F,-0.7
SEMA4F,-1.03
SEMA4F,0.24
SEMA4F,-0.64
FAAP24,-0.59
FAAP24,0.1
FAAP24,-0.15
FAAP24,0.17
